Results are given in words; binding and its absence hold for the method and conditions named. Binding seen in cells or lysates may run through a third protein. Binding calls can cover weak binding; strength is not graded here. Where a sequence is shown, tags or fusion partners need not be part of it.
T1: HA-tagged Drosophila Arf-like 1 (Arl1) (Drosophila) (UniProt P25160)
T1 sequence: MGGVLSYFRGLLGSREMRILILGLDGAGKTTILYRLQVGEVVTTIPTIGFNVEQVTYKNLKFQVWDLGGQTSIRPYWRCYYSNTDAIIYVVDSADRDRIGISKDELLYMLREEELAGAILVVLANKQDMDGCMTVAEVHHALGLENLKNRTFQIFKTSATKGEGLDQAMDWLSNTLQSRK

Sequences of proteins named here, by UniProt entry; tags and fusion partners are left off. A change or cut given only in a name is not applied to a line headed by its entry.
UniProt Q9VGQ8: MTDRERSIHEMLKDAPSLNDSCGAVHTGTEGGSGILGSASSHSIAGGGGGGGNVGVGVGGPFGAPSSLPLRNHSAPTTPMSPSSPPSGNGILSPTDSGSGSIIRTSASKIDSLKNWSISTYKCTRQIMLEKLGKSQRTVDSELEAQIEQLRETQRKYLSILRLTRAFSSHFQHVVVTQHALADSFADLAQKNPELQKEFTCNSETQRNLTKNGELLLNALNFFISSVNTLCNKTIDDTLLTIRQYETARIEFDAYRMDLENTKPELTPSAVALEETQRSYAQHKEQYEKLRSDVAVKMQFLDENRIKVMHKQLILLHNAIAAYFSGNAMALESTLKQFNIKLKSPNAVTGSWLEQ


What was measured:
[1] = target: T1, HA-tagged Drosophila Arf-like 1 (Arl1) (Drosophila); experiment: co-IP; lysate of S2 cells co-expressing FLAG-Arfip and Arl1-HA incubated with anti-HA antibody-coated beads; IP buffer 50 mM Tris (7.4), 50 mM NaCl, 1% TX-100, 1 mM MgCl2, protease inhibitors; immunoblot
[2] = target: FLAG-tagged Drosophila Arfaptin (Arfip) (Drosophila) (UniProt Q9VGQ8); experiment: co-IP; lysate of S2 cells co-expressing FLAG-Arfip and Arl1-HA incubated with anti-FLAG antibody-coated beads; IP buffer 50 mM Tris (7.4), 50 mM NaCl, 1% TX-100, 1 mM MgCl2, protease inhibitors; immunoblot

Molecule	binding [1]	binding [2]
FLAG-tagged Drosophila Arfaptin (Arfip) (from UniProt Q9VGQ8)	binds	–
HA-tagged Drosophila Arf-like 1 (Arl1) (protein, UniProt P25160 1-180) MGGVLSYFRGLLGSREMRILILGLDGAGKTTILYRLQVGEVVTTIPTIGFNVEQVTYKNLKFQVWDLGGQTSIRPYWRCYYSNTDAIIYVVDSADRDRIGISKDELLYMLREEELAGAILVVLANKQDMDGCMTVAEVHHALGLENLKNRTFQIFKTSATKGEGLDQAMDWLSNTLQSRK	–	binds

Reference: publication PMC4542281
